Our source for the binding values is PMC10713534.

Amino acid sequences for entries named in this document (tags omitted). A change or cut given only in a name is not applied to a line headed by its entry.
UniProt O75832: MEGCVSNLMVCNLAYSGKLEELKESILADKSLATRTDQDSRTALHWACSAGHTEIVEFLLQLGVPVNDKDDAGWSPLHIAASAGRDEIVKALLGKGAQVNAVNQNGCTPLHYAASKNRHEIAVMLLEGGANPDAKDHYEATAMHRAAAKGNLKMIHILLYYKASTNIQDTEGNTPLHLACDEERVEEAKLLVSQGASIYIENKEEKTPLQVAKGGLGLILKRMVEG
UniProt Q00987: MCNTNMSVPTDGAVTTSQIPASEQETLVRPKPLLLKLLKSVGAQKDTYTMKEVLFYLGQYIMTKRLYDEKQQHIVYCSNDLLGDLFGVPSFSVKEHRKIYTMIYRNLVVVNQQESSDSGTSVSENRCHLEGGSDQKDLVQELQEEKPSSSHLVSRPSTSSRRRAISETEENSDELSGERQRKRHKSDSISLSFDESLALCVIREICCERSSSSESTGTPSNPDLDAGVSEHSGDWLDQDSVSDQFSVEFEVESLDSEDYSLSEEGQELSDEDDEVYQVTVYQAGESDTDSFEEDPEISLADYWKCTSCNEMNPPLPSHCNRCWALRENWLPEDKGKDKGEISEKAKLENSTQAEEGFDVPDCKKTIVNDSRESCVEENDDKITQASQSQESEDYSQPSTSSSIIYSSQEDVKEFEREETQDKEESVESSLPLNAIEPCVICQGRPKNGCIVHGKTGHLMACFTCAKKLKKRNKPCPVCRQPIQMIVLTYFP

Assay [1] deals with GST-Gankyrin fusion protein (human) (UniProt O75832). Nature of the assay: pull-down; GST-Gankyrin (and GST) immobilized on Glutathione-Sepharose; in vitro translated 35S-labeled MDM2 added, 4 °C for an hour; eluted with 5 mM reduced glutathione, 10 mM Tris-HCl pH 8.0, 150 mM NaCl; only the target purified.
Assay [2] deals with HA-MDM2 (human) (UniProt Q00987). Nature of the assay: co-IP; lysate of MDM2 KO HEK293T cells co-transfected with HA-MDM2 and Flag-Gankyrin plasmids; agarose-conjugated anti-HA and anti-Flag antibodies, overnight at 4 °C; detected by Western blot.

No constants are given. Whether binding was seen depends on the method and setting. Binding seen in cells or lysates may run through a third protein. Some results given as binding are weak or reduced against the parent protein; the word gives no strength.

Consider “35S-labeled MDM2 protein (from UniProt Q00987 1-491)”, for which the binding result in assay [1] is reported as “binds”.

Turning to “Flag-Gankyrin (from UniProt O75832-1 1-226)”, the binding result in assay [2] was “binds”.
